The text below walks through data of paper PMC2660419.

Results are given in words; binding and its absence hold for the method and conditions named. In cells and extracts the contact can be indirect. Some results given as binding are weak or reduced against the parent protein; the word gives no strength. Where a sequence is shown, tags or fusion partners need not be part of it.

In the assay the target is T1, myc-tagged full-length human Teashirt3 (human) (UniProt Q63HK5).
T1 sequence: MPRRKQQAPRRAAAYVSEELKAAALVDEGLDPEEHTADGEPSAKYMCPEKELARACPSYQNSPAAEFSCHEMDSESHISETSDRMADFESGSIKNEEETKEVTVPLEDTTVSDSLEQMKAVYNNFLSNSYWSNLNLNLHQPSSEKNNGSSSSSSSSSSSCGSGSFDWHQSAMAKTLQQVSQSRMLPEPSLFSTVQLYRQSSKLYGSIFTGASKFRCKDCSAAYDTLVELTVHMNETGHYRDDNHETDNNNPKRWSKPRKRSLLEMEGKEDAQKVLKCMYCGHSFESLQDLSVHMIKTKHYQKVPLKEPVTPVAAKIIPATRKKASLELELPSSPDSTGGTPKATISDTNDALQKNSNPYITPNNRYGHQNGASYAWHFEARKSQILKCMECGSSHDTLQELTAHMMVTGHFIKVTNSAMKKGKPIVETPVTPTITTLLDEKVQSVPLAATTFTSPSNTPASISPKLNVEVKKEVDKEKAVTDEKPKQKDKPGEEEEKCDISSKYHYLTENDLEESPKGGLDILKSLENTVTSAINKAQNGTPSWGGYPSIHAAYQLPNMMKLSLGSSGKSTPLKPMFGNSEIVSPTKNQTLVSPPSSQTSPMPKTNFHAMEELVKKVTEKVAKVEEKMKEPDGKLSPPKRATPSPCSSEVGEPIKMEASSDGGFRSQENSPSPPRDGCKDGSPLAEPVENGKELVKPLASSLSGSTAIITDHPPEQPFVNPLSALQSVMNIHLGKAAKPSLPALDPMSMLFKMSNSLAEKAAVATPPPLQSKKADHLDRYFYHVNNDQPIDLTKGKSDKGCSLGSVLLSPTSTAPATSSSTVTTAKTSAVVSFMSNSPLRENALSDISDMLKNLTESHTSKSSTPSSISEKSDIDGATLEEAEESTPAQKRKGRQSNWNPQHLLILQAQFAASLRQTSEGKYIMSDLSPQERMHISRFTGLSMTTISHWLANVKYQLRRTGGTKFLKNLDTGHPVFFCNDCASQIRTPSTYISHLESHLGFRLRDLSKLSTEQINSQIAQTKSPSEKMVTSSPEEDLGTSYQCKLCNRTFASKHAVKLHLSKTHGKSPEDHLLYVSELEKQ
Kind of assay: co-IP; H4 cells transiently transfected with FLAG-FE65 and myc-Teashirt3 (human); IP with anti-myc or control mouse IgG, blot with anti-FE65; lysis in PBS/0.5% Triton X-100.

B1: FLAG-tagged rat FE65 (protein, UniProt P46933 1-711)
chain: MSVPSSLSQSAINANSHGGPALSFPFPLHAAHNQLLNAKLQATAVVPKDLRSAMGEGSVPEPGPANAKWLKEGQNQLRRAATAHRDQNRNVTLTLAEEASQEAETAPLGPKGLMHLYSELELSAHNAANRGLHGSALIINTQGLGPDEGEEKAAGEVEEEDEDEEEEDEEEEDLSSPQGLPEPLENVEVPSGPQVLTDGPREHSKSASLLFGMRNSAASDEDSSWATLSQGSPSYGSPEDTDSFWNPNAFETDSDLPAGWMRVQDTSGTYYWHIPTGTTQWEPPGRASPSQGNSPQEESQLTWTGFAHQEGFEEGEFWKDEPSEEAPMELGLKDPEEGTLPFSAQSLSPEPVPQEEENLPQRNANPGIKCFAVRSLGWVEMTEEELAPGRSSVAVNNCIRQLSYHKNNLHDPMSGGWGEGKDLLLQLEDETLKLVEPQNQTLLHAQPIVSIRVWGVGRDSGRERDFAYVARDKLTQMLKCHVFRCEAPAKNIATSLHEICSKIMSERRNARCLVNGLSLDHSKLVDVPFQVEFPAPKNELVQKFQVYYLGNVPVAKPVGVDVINGALESVLSSSSREQWTPSHVSVAPATLTILHQQTEAVLGECRVRFLSFLAVGRDVHTFAFIMAAGPASFCCHMFWCEPNAASLSEAVQAACMLRYQKCLDARSQTSTSCLPAPPAESVARRVGWTVRRGVQSLWGSLKPKRLGSQTP
As for B1, the binding result was “binds”.
